In paper PMC8998833:
Results are given in words; binding and its absence hold for the method and conditions named. Binding seen in cells or lysates may run through a third protein.

Amino acid sequences for entries named in this document (tags omitted). A change or cut given only in a name is not applied to a line headed by its entry.
UniProt Q9QUM0: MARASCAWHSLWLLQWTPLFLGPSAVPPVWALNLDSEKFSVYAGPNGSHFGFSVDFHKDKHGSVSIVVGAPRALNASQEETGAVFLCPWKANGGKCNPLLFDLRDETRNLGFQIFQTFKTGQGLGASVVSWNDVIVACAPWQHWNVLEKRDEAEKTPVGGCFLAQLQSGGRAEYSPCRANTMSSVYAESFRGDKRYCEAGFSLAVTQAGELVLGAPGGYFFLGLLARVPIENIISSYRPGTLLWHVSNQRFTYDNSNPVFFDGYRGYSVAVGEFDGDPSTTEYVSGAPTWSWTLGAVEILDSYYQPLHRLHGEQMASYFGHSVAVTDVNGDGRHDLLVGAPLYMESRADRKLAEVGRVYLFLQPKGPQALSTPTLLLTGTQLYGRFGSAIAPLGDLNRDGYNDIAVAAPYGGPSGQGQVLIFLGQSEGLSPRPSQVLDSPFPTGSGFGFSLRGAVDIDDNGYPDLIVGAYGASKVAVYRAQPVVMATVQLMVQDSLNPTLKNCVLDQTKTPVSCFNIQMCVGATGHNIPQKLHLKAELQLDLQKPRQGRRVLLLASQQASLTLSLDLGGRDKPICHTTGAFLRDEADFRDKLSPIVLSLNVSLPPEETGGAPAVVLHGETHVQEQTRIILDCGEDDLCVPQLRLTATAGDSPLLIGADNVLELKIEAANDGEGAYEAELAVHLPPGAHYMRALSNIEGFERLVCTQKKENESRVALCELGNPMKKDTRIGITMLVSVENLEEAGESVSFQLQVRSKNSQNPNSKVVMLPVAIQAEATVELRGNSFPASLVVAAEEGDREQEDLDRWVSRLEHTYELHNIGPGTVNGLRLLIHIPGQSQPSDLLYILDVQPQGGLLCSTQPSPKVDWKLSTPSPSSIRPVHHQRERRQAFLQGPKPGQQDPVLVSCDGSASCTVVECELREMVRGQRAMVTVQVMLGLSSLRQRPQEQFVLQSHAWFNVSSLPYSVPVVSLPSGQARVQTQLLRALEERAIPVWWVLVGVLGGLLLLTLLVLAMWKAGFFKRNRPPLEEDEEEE
UniProt O54890: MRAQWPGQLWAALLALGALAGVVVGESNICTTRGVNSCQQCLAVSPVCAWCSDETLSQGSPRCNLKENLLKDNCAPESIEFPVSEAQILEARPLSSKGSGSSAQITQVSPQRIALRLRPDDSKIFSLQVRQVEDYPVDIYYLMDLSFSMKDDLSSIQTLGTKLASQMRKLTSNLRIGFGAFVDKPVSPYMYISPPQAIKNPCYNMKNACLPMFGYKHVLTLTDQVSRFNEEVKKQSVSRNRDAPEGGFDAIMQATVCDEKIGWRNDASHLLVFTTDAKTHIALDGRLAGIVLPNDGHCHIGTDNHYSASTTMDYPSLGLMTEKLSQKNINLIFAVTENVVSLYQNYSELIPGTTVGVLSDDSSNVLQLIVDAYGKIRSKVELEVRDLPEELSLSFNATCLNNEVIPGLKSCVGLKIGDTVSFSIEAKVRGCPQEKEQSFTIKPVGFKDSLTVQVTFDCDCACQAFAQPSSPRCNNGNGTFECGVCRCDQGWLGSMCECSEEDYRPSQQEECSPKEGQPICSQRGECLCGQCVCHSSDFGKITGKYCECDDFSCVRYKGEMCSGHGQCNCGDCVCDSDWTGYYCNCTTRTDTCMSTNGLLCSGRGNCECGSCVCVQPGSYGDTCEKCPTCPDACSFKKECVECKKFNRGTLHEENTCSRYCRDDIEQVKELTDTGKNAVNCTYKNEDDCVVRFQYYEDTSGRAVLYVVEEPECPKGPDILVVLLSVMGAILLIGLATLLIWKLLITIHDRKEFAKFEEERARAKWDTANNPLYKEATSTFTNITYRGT

Biological target: integrin αIIbβ3 (mouse (endogenous in murine platelets)) (UniProt Q9QUM0+O54890)
Assay: FRET or BRET; flow cytometric FRET, negative control on murine washed platelets; anti-integrin αIIbβ3 (MWReg30, AF488 donor) and anti-GPIX (p0p6, AF546 acceptor)

B1: GPIX (receptor, UniProt O88186 17-177)
chain: TQACPRPCTCQSLETMGLKVNCEGQGLTALPVIPAHTRQLLLANNSLRSVPPGAFDHLPQLWDLDVTHNPWHCDCSLTYLRLWLEDHMPEALMHVYCASPDLATRRPLGQLTGYELGSCGWKLPPSWAYPGVWWDVSLVAVAVLGLILLAGLLNTFTESRN
binding: no binding
